Data from PubChem BioAssay AID504834 (National Center for Advancing Translational Sciences (NCATS), 2011).
In all, about 320,000 compounds went through this assay and about 22,000 (6.9%) were called active. Inconclusive results, whose numbers are uncertain, are shown with a selection of clear calls. Calls follow the shape of the dose curve; as a rule, active = well fitted inhibition curve with a large enough effect; inconclusive = small, poorly fitted or top-dose-only effect, or another doubt; inactive = no such curve, though single readings can be large or run the other way. A potency beside an inconclusive call is a rough fit, not a confirmed value.

Test: Primary qHTS for delayed death inhibitors of the malarial parasite plastid, 96 hour incubation
Conditions: P. falciparum luciferase reporter growth; series mostly up to 28.7 µM
In short: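 Compounds incubated with erythrocytes infected by luciferase-expressing P. falciparum (2% hematocrit, 0.05% parasitemia final) for 96 hours, 37 C in 5% CO2. Growth inhibition scored as decreased luciferase luminescence.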
Potency is read from the fitted curve at half-maximal effect.

Row | SMILES | Potency
1 | COc1cccc(/C=N/n2c(CO)nc3ccccc32)c1OC | inconclusive: 9.28 µM [inhibitor, single point]
2 | Cc1nc2c3cc(F)ccc3n(CCN3CCCCC3)c2s1 | inactive
3 | Cc1cccc(C(=O)OC(C)C(=O)N2CCc3ccccc3C2)c1C (stereo not drawn) | inconclusive: 4.15 µM [inhibitor, single point]
4 | CCOC(=O)C1(CCOc2ccccc2)CCN(Cc2ccc(OC)c(COC)c2)CC1 | inactive
5 | O=C(CN1CCCCC1)NN(Cc1ccccc1)c1ccccc1 | inconclusive: 13.1 µM [inhibitor, single point]
6 | O=C1NCCCC1C(=O)N/N=C/c1cccc(O)c1 (stereo not drawn) | inactive
7 | CCOC(=O)C1=C(C)N=C2SC(C)C(=O)N2C1c1ccc(OC(C)=O)c(OCC)c1 (stereo not drawn) | inconclusive: 18.5 µM [inhibitor, single point]
8 | CCOC(=O)N/N=C1\CC(C)CC(C)(C)C1 (stereo not drawn) | inactive
9 | CCOC(=O)Cn1nc(Cc2ccccc2)c2ccccc2c1=O | inconclusive: 18.5 µM [inhibitor, single point]
10 | COc1ccc(S(=O)(=O)N(C)CC(=O)NCCN2CCOCC2)cc1Cl | inactive
11 | CCNC(=O)C1CCCN1S(=O)(=O)c1ccc2ccccc2c1 (stereo not drawn) | inactive
12 | O=C(COC(=O)c1cccnc1Cl)Nc1cc(S(=O)(=O)N2CCCCC2)ccc1Cl | inactive
13 | CCC(C)(C(=O)NC1CCCC1)N(C(=O)CNC(=O)c1ccccc1)c1c(C)n(C)n(-c2ccccc2)c1=O (stereo not drawn) | inconclusive: 7.38 µM [inhibitor, partial curve, poor fit]
14 | Cc1n(Cc2ccccc2)c2cc([N+](=O)[O-])ccc2[n+]1Cc1ccccc1 | inconclusive: 18.5 µM [inhibitor, single point]
15 | COC(=O)C1=C(c2cccc(C#N)c2)C[C@@H]2CC[C@H]1N2C(=O)NCCOc1ccccc1Cl | inconclusive: 10.4 µM [inhibitor, partial curve]
16 | CCOc1ccc(-n2c(C)nc3cc(C(=O)NCc4ccc5c(c4)OCO5)ccc32)cc1 | inconclusive: 20.8 µM [inhibitor, single point]
17 | O=C(COc1ccc(Br)cc1)N1CCN(c2ccc([N+](=O)[O-])c(N3CCCCC3)c2)CC1 | inconclusive: 4.15 µM [inhibitor, single point]
18 | Cc1cc(C)c(S(C)(=O)=O)c(Oc2ccc(F)cc2)n1 | inconclusive: 0.165 µM [inhibitor, full curve, poor fit]
19 | CCC(C)n1c(SCC(=O)NCc2ccco2)nnc1-c1cccc(S(=O)(=O)N2CCOCC2)c1 (stereo not drawn) | inconclusive: 9.28 µM [inhibitor, single point]
20 | c1ccc2c(-n3cnnn3)cccc2c1 | inconclusive: 18.5 µM [inhibitor, single point]
21 | CCOC(=O)c1[nH]ncc1CN1CCC(Cc2cccc(OC)c2)(C(=O)OCC)CC1 | inactive
22 | COc1ccc(CCNC(=O)c2ccc(CNS(=O)(=O)c3ccc(C(C)(C)C)cc3)cc2)cc1OC | active: 13.1 µM
23 | COCCSc1nnc(NC(=O)C2CC(=O)N(c3ccc(OC)cc3)C2)s1 (stereo not drawn) | inconclusive: 8.28 µM [inhibitor, partial curve, poor fit]

Row | SMILES | Potency
24 | CCn1c(NCc2ccc3c(c2)OCO3)nc2ccccc21 | inconclusive: 18.5 µM [inhibitor, single point]
25 | O=c1c(-c2ccco2)[n+]([O-])c2ccccc2n1OCc1ccccn1 | inactive
26 | CC1CCN(C(C)C(=O)Nc2ccccc2-c2ccccc2)CC1 (stereo not drawn) | inactive
27 | COc1ccc(NC(=O)COc2ccc3c(C)cc(=O)oc3c2)cc1S(=O)(=O)N1CCCCC1 | inactive
28 | CCC(c1nnnn1CCOC)N1CCN(Cc2ccccc2)CC1 (stereo not drawn) | inconclusive: 0.415 µM [inhibitor, full curve, poor fit]
29 | Cc1cccc(N2C(=NC(=O)c3ccccc3)SC3CS(=O)(=O)CC32)c1 (stereo not drawn) | inconclusive: 11.7 µM [inhibitor, single point]
30 | CC1CN(Cc2nc3c(c(=O)n(C)c(=O)n3C)n2Cc2cccc(Cl)c2)CC(C)O1 (stereo not drawn) | inconclusive: 14.7 µM [inhibitor, partial curve, poor fit]
31 | COCn1c(COc2ccccc2)nc2ccccc21 | inconclusive: 18.5 µM [inhibitor, single point]
32 | CC(C)(C)c1ccc(O)c(N=Cc2c(O)ccc3ccccc23)c1 | inconclusive: 10.4 µM [inhibitor, single point]
33 | COc1ccc(NC(=O)CCCn2c(=S)[nH]c3ccccc3c2=O)cc1 | inconclusive: 14.7 µM [inhibitor, partial curve, poor fit]
34 | O=C1NN(c2ccccc2)C(=O)/C1=C/c1ccc(Sc2cccc3ccccc23)o1 | inconclusive: 3.7 µM [inhibitor, partial curve, poor fit]
35 | CCc1nc2sc3ccccc3c(=O)c2c(=O)n1Cc1ccc(OC)cc1 | inconclusive: 2.62 µM [inhibitor, partial curve, poor fit]
36 | CCOc1ccc(OCCOCCN2CCCC2)cc1 | inactive
37 | CC(OC(=O)CN1C(=O)c2ccccc2C1=O)C(=O)NC1CCCCC1 (stereo not drawn) | inactive
38 | O=C(c1ccc(F)cc1)N1CCN(S(=O)(=O)c2ccc(Br)cc2)CC1 | inconclusive: 14.7 µM [inhibitor, partial curve]
39 | CCCn1c(SC(C)C(=O)NCC2CCCO2)nc2cc(Cl)ccc2c1=O (stereo not drawn) | inactive
40 | CCCCCCc1cc2cc(C(=O)Nc3ccccc3)c(=O)oc2cc1O | inconclusive: 5.22 µM [inhibitor, partial curve, poor fit]
41 | COc1ccc(CNC(=O)c2cc3c(s2)CS(=O)C3)cc1 (stereo not drawn) | inconclusive: 0.0329 µM [inhibitor, full curve, poor fit]
42 | Cc1nc(N2CCN(Cc3ccccc3)CC2)[nH]c(=O)c1C | active: 2.62 µM
43 | O=C(NNC(=S)Nc1ccc(Cl)c(Cl)c1)c1ccccn1 | inconclusive: 4.15 µM [inhibitor, single point]
44 | Cc1ccc(NC(=O)C2CCN(C(=O)c3ccc(Cl)cc3)CC2)nc1 | inconclusive: 11.7 µM [inhibitor, partial curve, poor fit]
45 | COc1ccc(Cl)cc1NC(=O)CN(C)CC(=O)NC(C)c1ccccc1 (stereo not drawn) | inactive
46 | CCOc1ccccc1OCCCC(=O)N(C)CC(=O)Nc1cc(C)ccc1C | inactive

Row | SMILES | Potency
47 | COc1ccc(N2C(=O)CN(Cc3ccc(OC)c(OC)c3)C2=S)cc1 | inconclusive: 2.33 µM [inhibitor, full curve, poor fit]
48 | COc1ccc(CNCC(O)COc2ccc(C)cc2[N+](=O)[O-])cc1 (stereo not drawn) | inactive
49 | CCn1cc(C(=O)N2CCCC2)c(=O)c2cc(S(=O)(=O)N(C)C)ccc21 | inconclusive: 18.5 µM [inhibitor, single point]
50 | CCCCOc1ccc(CONS(=O)(=O)c2ccc(NC(C)=O)cc2)cc1Cl | inconclusive: 18.5 µM [inhibitor, single point]
51 | O=C(c1cccc(C(F)(F)F)c1)N1CCCCCC1 | inconclusive: 18.5 µM [inhibitor, single point]
52 | Cc1[nH]cnc1C(=O)N/N=C/c1ccc([N+](=O)[O-])s1 | active: 1.85 µM
53 | CCOC(=O)CCc1c(C)c2ccc3c(c2oc1=O)CN(CCCO)CO3 | inconclusive: 11.7 µM [inhibitor, partial curve, poor fit]
54 | Cc1ccc(S[C@@H](CCN2CC[C@H](NC(=O)OCc3ccccc3)CCC2=O)c2ccccc2)cc1 | inconclusive: 9.28 µM [inhibitor, partial curve, poor fit]
55 | CCCC(=O)CN1C(=O)C2(OCCO2)c2ccccc21 | inconclusive: 13.1 µM [inhibitor, single point]
56 | NC(=O)[C@@H]1CC2(CC(c3cccc(NC(=O)COc4ccc(Cl)cc4)c3)=NO2)CN1C(=O)COc1ccc(Cl)cc1 (stereo partly drawn) | inconclusive: 10.4 µM [inhibitor, single point]
57 | Nc1[nH]c(N=NC(=O)c2ccc(Cl)cc2)c2ccccc12 | inconclusive: 0.928 µM [inhibitor, full curve]
58 | COc1ccc(-c2nnc(SCC(=O)Nc3ccccc3)n2C)cc1 | inconclusive: 9.28 µM [inhibitor, partial curve]
59 | O=C(NCCCN1CCCCC1)c1ccc(CS(=O)c2ccc(F)cc2)o1 (stereo not drawn) | inconclusive: 18.5 µM [inhibitor, single point]
60 | O=C(C1CCCN(S(=O)(=O)c2ccccc2)C1)N1CCCCC1 (stereo not drawn) | inconclusive: 10.4 µM [inhibitor, single point]
61 | O=C(Nc1nccs1)c1ccc([N+](=O)[O-])cc1Cl | active: 10.4 µM
62 | CC1(C)Cc2c(cnn2-c2ccccc2)-c2c1c1ccccc1n2CC(O)CBr (stereo not drawn) | inconclusive: 9.28 µM [inhibitor, single point]
63 | COCCNC(=S)N(CCc1c(C)[nH]c2ccccc12)Cc1cccnc1 | inconclusive: 11.7 µM [inhibitor, partial curve, poor fit]
64 | C[C@@H](C(=O)Nc1ccc2ccccc2c1)[C@H]1C[C@]1(C)[C@H](NP(=O)(c1ccccc1)c1ccccc1)c1ccccc1 | active: 10.4 µM
65 | CCOC(=O)c1c(NC(=S)N2CCN(C)CC2)sc2c1CCN(C(=O)OCC)C2 | active: 11.7 µM
66 | CCOCCOc1cccc(C(=O)NC(C)c2ccc3ccccc3c2)c1 (stereo not drawn) | inconclusive: 2.33 µM [inhibitor, partial curve, poor fit]
67 | CSc1nc(N2CCN(C)CC2)c2ccccc2n1 | active: 14.7 µM
68 | CCOc1ccc(CN(C(=O)c2cccs2)C2CCS(=O)(=O)C2)cc1 (stereo not drawn) | inactive

Structures shown so far containing four or more nitrogen atoms (16):
Row | SMILES | Potency
13 | CCC(C)(C(=O)NC1CCCC1)N(C(=O)CNC(=O)c1ccccc1)c1c(C)n(C)n(-c2ccccc2)c1=O (stereo not drawn) | inconclusive: 7.38 µM [inhibitor, partial curve, poor fit]
17 | O=C(COc1ccc(Br)cc1)N1CCN(c2ccc([N+](=O)[O-])c(N3CCCCC3)c2)CC1 | inconclusive: 4.15 µM [inhibitor, single point]
19 | CCC(C)n1c(SCC(=O)NCc2ccco2)nnc1-c1cccc(S(=O)(=O)N2CCOCC2)c1 (stereo not drawn) | inconclusive: 9.28 µM [inhibitor, single point]
20 | c1ccc2c(-n3cnnn3)cccc2c1 | inconclusive: 18.5 µM [inhibitor, single point]
23 | COCCSc1nnc(NC(=O)C2CC(=O)N(c3ccc(OC)cc3)C2)s1 (stereo not drawn) | inconclusive: 8.28 µM [inhibitor, partial curve, poor fit]
28 | CCC(c1nnnn1CCOC)N1CCN(Cc2ccccc2)CC1 (stereo not drawn) | inconclusive: 0.415 µM [inhibitor, full curve, poor fit]
30 | CC1CN(Cc2nc3c(c(=O)n(C)c(=O)n3C)n2Cc2cccc(Cl)c2)CC(C)O1 (stereo not drawn) | inconclusive: 14.7 µM [inhibitor, partial curve, poor fit]
42 | Cc1nc(N2CCN(Cc3ccccc3)CC2)[nH]c(=O)c1C | active: 2.62 µM
43 | O=C(NNC(=S)Nc1ccc(Cl)c(Cl)c1)c1ccccn1 | inconclusive: 4.15 µM [inhibitor, single point]
52 | Cc1[nH]cnc1C(=O)N/N=C/c1ccc([N+](=O)[O-])s1 | active: 1.85 µM
56 | NC(=O)[C@@H]1CC2(CC(c3cccc(NC(=O)COc4ccc(Cl)cc4)c3)=NO2)CN1C(=O)COc1ccc(Cl)cc1 (stereo partly drawn) | inconclusive: 10.4 µM [inhibitor, single point]
57 | Nc1[nH]c(N=NC(=O)c2ccc(Cl)cc2)c2ccccc12 | inconclusive: 0.928 µM [inhibitor, full curve]
58 | COc1ccc(-c2nnc(SCC(=O)Nc3ccccc3)n2C)cc1 | inconclusive: 9.28 µM [inhibitor, partial curve]
63 | COCCNC(=S)N(CCc1c(C)[nH]c2ccccc12)Cc1cccnc1 | inconclusive: 11.7 µM [inhibitor, partial curve, poor fit]
65 | CCOC(=O)c1c(NC(=S)N2CCN(C)CC2)sc2c1CCN(C(=O)OCC)C2 | active: 11.7 µM
67 | CSc1nc(N2CCN(C)CC2)c2ccccc2n1 | active: 14.7 µM
